Measurements from PubChem BioAssay AID1487 (National Center for Advancing Translational Sciences (NCATS), 2009).
Where “and” joins values, the source holds several entries; their conditions need not be identical. Equal entries are not always repeated. Some of the results follow. Shown are side measurements of this screen, not its main read-out; they come without a call. Most of these compounds were active or inconclusive in the main read-out, so they are no random draw. Words in brackets tell the shape of the fitted curve; partial curves, single points and poor fits give uncertain potencies.

Test: qHTS Assay for Modulators of Lamin A Splicing
Settings: HeLa LMNA splicing GFP/RFP minigene ratio, 48 h
Procedure, shortened: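 S3 HeLa cells stably expressing lamin A-EGFP splicing minigene plus DsRed2, 600 cells/well, 48 h compound exposure at 37C. Laser-scanning cytometry; analysed as GFP (500-530 nm)/RFP (575-640 nm) total intensity ratio; 0.5% DMSO vehicle.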

[1] = measured here: RFP viability control channel
[2] = measured here: GFP splicing reporter channel

Row | SMILES | AC50 [1] | AC50 [2]
1 | COc1ccc2nc(NC(=O)Nc3ccccc3)sc2c1 | 35.5 µM [rising, single point] | 
2 | COc1cc(OC)c(NC(=O)C2CCN(C(=O)c3sc4nc[nH]c(=O)c4c3C)CC2)cc1Cl | 1.41 µM [falling, full curve, poor fit] | 1.41 µM [falling, full curve, poor fit]
3 | COc1cccc2cc(C(C)N(CCCN3CCOCC3)C(=S)Nc3cc(C)cc(C)c3)oc12 (stereo not given) |  | 35.5 µM [falling, single point]
4 | CC(=O)Oc1ccc2cc(-c3nc4ccccc4n3C)c(=O)oc2c1 |  | 17.8 µM [rising, single point]
5 | COC(=O)[C@@]1(Cc2ccc(OC)cc2)[C@H]2c3cc(C(=O)N4CCCC4)n(Cc4ccc(OC)c(OC)c4)c3C[C@H]2CN1C(=O)c1ccccc1 | 17.8 µM [rising, partial curve] | 15.8 µM [rising, partial curve]
6 | N#C/C(=C/c1ccc(Sc2nc3ccccc3[nH]2)o1)c1cccc(Br)c1 | 12.6 µM [rising, single point] | 
7 | C=CS(=O)(=O)c1ccc(Oc2ccc(S(=O)(=O)C=C)cc2)cc1 | 31.6 µM [falling, single point] | 31.6 µM [falling, single point]
8 | O=C1c2cccc(OCC(=O)N3CCCc4ccccc43)c2CCN1Cc1ccc(Br)cc1 | 35.5 µM [rising, single point] | 
9 | O=C(NCc1cccs1)c1noc2c1CCCC2 | 35.5 µM [rising, single point] | 35.5 µM [rising, single point]
10 | Cc1[nH]c2ccccc2c1C(=O)COC(=O)Cn1c(C(F)(F)F)nc2ccccc21 | 0.447 µM [rising, full curve] | 0.891 µM [rising, full curve, poor fit]
11 | C=CCOc1ccccc1OC[C@H](O)CNC(C)C |  | 0.398 µM [falling, partial curve, poor fit]
12 | Cc1ccc(SCCNC(=S)Nc2cc(C)ccc2C)cc1 | 35.5 µM [rising, single point] | 35.5 µM [rising, single point]
13 | Oc1ccc(Br)cc1-c1cc(-c2ccc(Cl)cc2)n[nH]1 | 5.62 µM [falling, single point] | 3.55 µM [falling, partial curve]
14 | Cc1cccc(NS(=O)(=O)c2ccc(C3CCCCC3)cc2)n1 | 14.1 µM [rising, single point] | 11.2 µM [rising, single point]
15 | COc1cccc2cc(-c3csc(CCn4nc(C)cc4C)n3)c(=O)oc12 | 22.4 µM [rising, partial curve, poor fit] | 
16 | COc1ccc(C(=O)CSc2nnc(CNc3nc(-c4ccccc4)cs3)n2C)cc1 | 35.5 µM [rising, single point] | 15.8 µM [rising, single point]
17 | O=C(CSc1ccccn1)N1CCN(c2cccc(Cl)c2)CC1 | 31.6 µM [rising, single point] | 

Row | SMILES | AC50 [1] | AC50 [2]
18 | COc1cc(S(=O)(=O)N(Cc2ccc(C)cc2)C2CCCCC2)ccc1-n1cnnn1 | 15.8 µM [rising, single point] | 14.1 µM [rising, partial curve, poor fit]
19 | Oc1c(C=C2N=c3ccccc3=N2)sc(=S)n1-c1ccc(F)cc1 | 31.6 µM [falling, single point] and 12.6 µM [rising, partial curve] | 3.98 µM [rising, full curve, poor fit]
20 | Oc1[nH]c2ccccc2c1C=Nc1ccc2c(c1)OCCO2 | 14.1 µM [rising, partial curve] | 
21 | CCc1nnc(NC(=O)[C@@H](NC(=O)c2cccc(S(=O)(=O)N3CCOCC3)c2)C(C)C)s1 | 5.62 µM [falling, single point] | 
22 | O=C1OC(c2cccs2)=N/C1=C/c1ccc(-c2cccc(C(=O)O)c2)o1 | 31.6 µM [rising, single point] | 
23 | Cc1ccc(N=Nc2c(N)[nH]n3c(=O)cc(C)nc23)cc1 | 35.5 µM [rising, single point] | 35.5 µM [rising, single point]
24 | O=C(c1cc2c(s1)CCCC2)N1CCN(Cc2ccc3c(c2)OCO3)CC1 | 28.2 µM [rising, single point] | 10 µM [rising, partial curve]
25 | CCOc1ccc(CC(=O)NNC(=S)NCCc2ccccc2)cc1 | 0.891 µM [falling, partial curve, poor fit] | 
26 | CCCN1C(=O)/C(=C\c2ccncc2)SC1=Nc1ccccc1 | 31.6 µM [rising, single point] | 35.5 µM [rising, single point]
27 | C=CCn1c(NCCc2ccccc2)nc2c1c(=O)n(C)c(=O)n2C | 11.2 µM [rising, partial curve] | 15.8 µM [rising, partial curve]
28 | Cc1ccc2nc3c(c(N)c2c1)CCN3c1ccccc1 | 11.2 µM [rising, single point] | 
29 | COc1ccc(C(=O)Oc2cccc(Nc3ncnc4ccccc34)c2)cc1OC | 15.8 µM [rising, partial curve] | 12.6 µM [rising, partial curve]
30 | Cc1c(C)n2c3c(cccc13)CC2 | 0.0282 µM [rising, full curve, poor fit] | 0.0251 µM [rising, full curve, poor fit]
31 | COc1cc(/C=N/NC(=S)Nc2cccc(S(=O)(=O)N(C)C)c2)cc(OC)c1O | 11.2 µM [rising, partial curve] | 
32 | COc1cc(-c2nc(-c3ccccc3)c(-c3cccs3)[nH]2)cc(OC)c1OC | 20 µM [rising, single point] | 
33 | CN(C)/C=N/c1c(C#N)cnn1-c1ncnc2sc(-c3ccccc3)cc12 | 25.1 µM [rising, single point] | 

3 entries picked at random from those above, as already listed:
Row | SMILES | AC50 [1] | AC50 [2]
26 | CCCN1C(=O)/C(=C\c2ccncc2)SC1=Nc1ccccc1 | 31.6 µM [rising, single point] | 35.5 µM [rising, single point]
33 | CN(C)/C=N/c1c(C#N)cnn1-c1ncnc2sc(-c3ccccc3)cc12 | 25.1 µM [rising, single point] | 
25 | CCOc1ccc(CC(=O)NNC(=S)NCCc2ccccc2)cc1 | 0.891 µM [falling, partial curve, poor fit] | 
